From publication PMC7819943, “Rice protein-binding microarrays: a tool to detect cis-acting elements near promoter regions in rice”
The other results are listed elsewhere or left out.

Chains of the proteins cited; added tags and fusions are not shown.
UniProt Q0JBA9, entry or part of it: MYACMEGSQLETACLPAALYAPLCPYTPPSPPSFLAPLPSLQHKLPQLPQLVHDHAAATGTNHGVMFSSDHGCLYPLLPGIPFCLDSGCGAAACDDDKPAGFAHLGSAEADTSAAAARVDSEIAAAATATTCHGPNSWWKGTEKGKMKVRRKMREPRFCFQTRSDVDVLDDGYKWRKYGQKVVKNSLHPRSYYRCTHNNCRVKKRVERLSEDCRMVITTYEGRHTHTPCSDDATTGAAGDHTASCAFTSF

Each sequence was assayed against OsWRKY34 (Oryza sativa, UniProt Q0JBA9 1-250) (assay: protein-binding microarray (RPBM); PBS, 2% BSA, 51.3 ng/ul salmon testes DNA, 50 uM zinc acetate, 200 nM TF, 25 C, 1 h; high values mean tight binding). Details: protein: recombinant; tags: N-terminal polyhistidine and DsRed monomer fusion (pET32a); label: CyDye5-dUTP incorporated in the synthesized complementary strand; 3' TTTTT single-stranded linker to array surface; dsDNA, one strand shown.
In short: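 Binding signal is reported as fluorescence intensity per feature (arbitrary units) from an Axon 4000B scanner. Incubation used 200 nM of each Ni–NTA-purified, N-terminally polyhistidine- and DsRed-fused transcription factor from E. coli BL21-CodonPlus on a double-stranded custom Agilent array for 1 h at 25 °C, with 50 µM zinc acetate in the buffer, followed by washing.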

| Sequence | binding signal |
| --- | --- |
| CCCGCCTCTCCTTCTCCGGCCAGTCCAGCCGCCGCCGCCGCGGAGTCACCTAGTGCAG | 9320 fluorescence intensity (a.u.) |
| ATACTCTCATTTTTGTTTGCTCTATTCTTTGCTTTTAGAACGGAGTCACCTAGTGCAG | 10200 fluorescence intensity (a.u.) |
| CTCGGTCTTTTTCTACCCACCCCTAAATAGCATGCTGCATCGGAGTCACCTAGTGCAG | 9020 fluorescence intensity (a.u.) |
| GTTTTTTCTTCGTTCATATTTAATGCTTCATACATATGTCCGGAGTCACCTAGTGCAG | 11600 fluorescence intensity (a.u.) |
| TGTCTTGGTCATCGCTTCGGTTGCTCATGGCGCTGTTGTGCGGAGTCACCTAGTGCAG | 12700 fluorescence intensity (a.u.) |
| TCCTGTGTTTTGCAATCCTCTGTTTTTACACTTGCATTCCCGGAGTCACCTAGTGCAG | 10400 fluorescence intensity (a.u.) |
| GCCGTCGCACCACCACTGCCATCGCTCTCACCTCTTTGACCGGAGTCACCTAGTGCAG | 13700 fluorescence intensity (a.u.) |
| GGAAAAGTTGGAAGTTTGTGTGTGTAGGAAAGTTTTAATGCGGAGTCACCTAGTGCAG | 8390 fluorescence intensity (a.u.) |
| TTCTGTCATCCTCTCTCACGTCTATCATTGGTTTCTAGATCGGAGTCACCTAGTGCAG | 10500 fluorescence intensity (a.u.) |
| TGCGAGGTGGTGGTGATTGCTTCGTCGGCTGTTGATTTCTCGGAGTCACCTAGTGCAG | 9500 fluorescence intensity (a.u.) |
| GTATATTGGTGCAGCACCATATTGTGTTGTAGTGTAGTGACGGAGTCACCTAGTGCAG | 11900 fluorescence intensity (a.u.) |
| GGCCCACCTGTCATCATCCGCACGAGTGAAGGAGATTTCACGGAGTCACCTAGTGCAG | 9660 fluorescence intensity (a.u.) |
| TTGACACCGTTGACTTTTTAGTACATGTTTGACCGTTCGTCGGAGTCACCTAGTGCAG | 41400 fluorescence intensity (a.u.) |
| AGGTCGCCTCGCCTCACCTCCTTCCACGGCTCCACCGCCGCGGAGTCACCTAGTGCAG | 10200 fluorescence intensity (a.u.) |
| ATTTGTGATTCCTACGTATACGAATTTTCATGTATTGATCCGGAGTCACCTAGTGCAG | 8750 fluorescence intensity (a.u.) |
| CTCTCCCCAAGCGAGCCGGTACATATGCATCTACATATCTCGGAGTCACCTAGTGCAG | 8720 fluorescence intensity (a.u.) |
| AGCATCAAGTCTCCACACCGCACTATGTCAAGTCCTTCTACGGAGTCACCTAGTGCAG | 9390 fluorescence intensity (a.u.) |
| GACTACTATAACCCTATTTAATGAGCACAGTACATACACACGGAGTCACCTAGTGCAG | 8120 fluorescence intensity (a.u.) |
| CTCTGTGCGCAAGTCCACACGTCAACCATGGCCGTACGTACGGAGTCACCTAGTGCAG | 8060 fluorescence intensity (a.u.) |
| TCTTCCAATCGAGAACTCTTCTCCGGATTTCCTGGTTTTTCGGAGTCACCTAGTGCAG | 8480 fluorescence intensity (a.u.) |
| ATAATATCACACGTACACTCCCACATATACACTCTCTTTCCGGAGTCACCTAGTGCAG | 12100 fluorescence intensity (a.u.) |

Part of the list above, bar-delimited.
Sequence | binding signal
GTTTTTTCTTCGTTCATATTTAATGCTTCATACATATGTCCGGAGTCACCTAGTGCAG | 11600 fluorescence intensity (a.u.)
TGTCTTGGTCATCGCTTCGGTTGCTCATGGCGCTGTTGTGCGGAGTCACCTAGTGCAG | 12700 fluorescence intensity (a.u.)
TCCTGTGTTTTGCAATCCTCTGTTTTTACACTTGCATTCCCGGAGTCACCTAGTGCAG | 10400 fluorescence intensity (a.u.)

The results go on.

| Sequence | binding signal |
| --- | --- |
| CAATTTGATGTATCTGTTCTGAATCTTCCACTCATGAATGCGGAGTCACCTAGTGCAG | 8290 fluorescence intensity (a.u.) |
| GGATGGATGGGGATGCCGCTACGCTTCCGGGGAGGTCACCCGGAGTCACCTAGTGCAG | 9680 fluorescence intensity (a.u.) |
| TTGGTAGAGTTGTCCGTTTGGATTTTGGCCTCCCTTTTTTCGGAGTCACCTAGTGCAG | 8380 fluorescence intensity (a.u.) |
| TCTTTTCCTTTTTTGTCTTCGTTGCTACTCATGTTAGAGTCGGAGTCACCTAGTGCAG | 8760 fluorescence intensity (a.u.) |
| ACATGATTTTCACATTTCTAACACTTGATATTTCTCCTTACGGAGTCACCTAGTGCAG | 8110 fluorescence intensity (a.u.) |
| TAGGGACCCCTTTGGCTATTCACCCTTTTTTCTTAGTCCACGGAGTCACCTAGTGCAG | 10600 fluorescence intensity (a.u.) |
| GCAACCGGATTCAATGCTATATATGATTTCTGACTCTGTTCGGAGTCACCTAGTGCAG | 8890 fluorescence intensity (a.u.) |
| GGACATGTCTCCAAGCTCTCATCCGTTGACTTCTCCCTATCGGAGTCACCTAGTGCAG | 15200 fluorescence intensity (a.u.) |
| TGTTCATCTTGTTCTTGCTGGTTCTCGATTGCTCGCAGGACGGAGTCACCTAGTGCAG | 10400 fluorescence intensity (a.u.) |
| TTTTCCAACCTCCGCTGTCTCATTTCGTATACACACGTTTCGGAGTCACCTAGTGCAG | 8260 fluorescence intensity (a.u.) |
| ACACGTTACCTCCGCCGCGGTTGCTTTCCTTCTTCCCTTCCGGAGTCACCTAGTGCAG | 10800 fluorescence intensity (a.u.) |
| TCTCTCCTCCTCCGAGTCTTTTCGGTTTGGCTCGATCCGCCGGAGTCACCTAGTGCAG | 9390 fluorescence intensity (a.u.) |
| CCTGCCCACTTGCGACTTGTGTCTTTTGTCTCGTTTCTTGCGGAGTCACCTAGTGCAG | 14300 fluorescence intensity (a.u.) |
| CCCTTTCCTTCTCATTCCTCGCGGGGAGGGGCGGCGCCGACGGAGTCACCTAGTGCAG | 11500 fluorescence intensity (a.u.) |
| TAGCCACCATCTCAGCAATACAACCGCTACTGCTAAAAACCGGAGTCACCTAGTGCAG | 8200 fluorescence intensity (a.u.) |
| CGGCCACCACCAAACCACCACCATCCCGACCAATCAAACGCGGAGTCACCTAGTGCAG | 9760 fluorescence intensity (a.u.) |
| ATATTTTTATCTAATCATTCTCACCTATTTTGTTAATACCCGGAGTCACCTAGTGCAG | 10000 fluorescence intensity (a.u.) |
| TAGTTTTCTCAGGTGTTTGGGAATTGGTTGGTGAAGATGACGGAGTCACCTAGTGCAG | 9450 fluorescence intensity (a.u.) |
| ACGTCTGCCGCCACTGTCCTCGCCAACCCTACCGCGCTCCCGGAGTCACCTAGTGCAG | 10500 fluorescence intensity (a.u.) |
| CTTTTAGGTCTAATTTACTGGTAGCAGCATAGAATTTTCACGGAGTCACCTAGTGCAG | 8510 fluorescence intensity (a.u.) |
| TGGATGGTCTCTAGTTCTTTAGGATTTAAATGGTTATTGTCGGAGTCACCTAGTGCAG | 8170 fluorescence intensity (a.u.) |
